In publication PMC9401491, “The Novel Nucleoside Analogue ProTide NUC-7738 Overcomes Cancer Resistance Mechanisms In Vitro and in a First-In-Human Phase I Clinical Trial” (Clinical Cancer Research, 2021):

System: NCI-60 cells
Test: Correlation of IC50 with HINT1 mRNA in NCI-60 cells
Format: cell-based
Conditions: IC50 vs HINT1 mRNA z-score

| Structure (SMILES) | correlation between expression of HINT1 and sensitivity (r) |
| --- | --- |
| C[C@H](NP(=O)(OC[C@@H]1C[C@@H](O)[C@H](n2cnc3c(N)ncnc32)O1)Oc1ccccc1)C(=O)OCc1ccccc1 (stereo partly drawn) [NUC-7738, 3′-deoxyadenosine-5′-O-phenyl-(benzyloxy-L-alaninyl)-phosphate] | 0.28 |
| Nc1ncnc2c1ncn2[C@@H]1O[C@H](CO)C[C@H]1O [3′-dA, 3′-deoxyadenosine, reference compound] | 0.19 |

No dose or concentration is given here for some results.
